Laboratory results reported in PubChem BioAssay AID1487 (National Center for Advancing Translational Sciences (NCATS), 2009).
The other results are listed elsewhere or left out. The main result of the screen is listed elsewhere. These columns were measured beside it and carry no call. Most of these compounds were active or inconclusive in the main read-out, so they are no random draw. The note in brackets gives the kind of curve behind each potency; many fits are weak.

Assay: qHTS Assay for Modulators of Lamin A Splicing
Details: HeLa LMNA splicing GFP/RFP minigene ratio, 48 h
How it was run: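 S3 HeLa cells stably expressing lamin A-EGFP splicing minigene plus DsRed2, 600 cells/well, 48 h compound exposure at 37C. Laser-scanning cytometry; analysed as GFP (500-530 nm)/RFP (575-640 nm) total intensity ratio; 0.5% DMSO vehicle.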

[1] = measured here: GFP splicing reporter channel
[2] = measured here: RFP viability control channel

Row | Compound | AC50 [1] | AC50 [2]
1 | Oc1ccccc1/C=N/NC(=S)NC1CC2C=CC1C2 (configuration not stated) | 5.62 µM [falling, single point] | 20 µM [rising, single point]
2 | COc1ccc(-c2cn(-c3ccc(Br)cc3)c3[n+]2CCS3)cc1 |  | 8.91 µM [rising, partial curve]
3 | O=C(c1sc2cccc(F)c2c1Cl)N1CCN(c2ncccn2)CC1 |  | 0.398 µM [rising, partial curve, poor fit]
4 | Cc1cc(C)cc(NC(=O)Cn2cc(C(=O)c3ccncc3)c(=O)c3cc(C)c(C)cc32)c1 |  | 0.00316 µM [rising, full curve, poor fit]
5 | CC(=O)N=C1SC2CS(=O)(=O)CC2N1c1c(Cl)cccc1Cl (configuration not stated) |  | 0.794 µM [rising, full curve, poor fit]
6 | Cc1ccccc1CN1C(=O)c2ccccc2Sc2ccc(C(=O)O)cc21 |  | 8.91 µM [rising, partial curve]
7 | Cc1ccc(NC(=O)NC2CCN(CC(=O)Nc3nccs3)CC2)cc1 |  | 35.5 µM [rising, single point]
8 | O=S(=O)(c1cc(Br)c(Br)s1)N1CCN(c2ccccc2)CC1 |  | 3.16 µM [falling, partial curve, poor fit]
9 | CC(=O)NC(CC(=O)Nc1nc(C)cs1)c1ccccc1 (configuration not stated) |  | 2.51 µM [falling, partial curve, poor fit]
10 | CN(Cc1ccco1)c1ncnc2ccc(-c3ccccc3Cl)cc12 | 35.5 µM [falling, single point] | 35.5 µM [falling, single point]
11 | COc1ccc(NC(=O)C2CCN(S(=O)(=O)c3cn(C)cn3)CC2)cc1Cl | 1.41 µM [rising, partial curve] | 
12 | COc1ccc(S(=O)(=O)N(CC(=O)N2CCN(c3ccccc3OC)CC2)c2ccccc2)cc1 | 31.6 µM [rising, single point] | 35.5 µM [rising, partial curve]
13 | CCOC(=O)c1sc2nc(Cc3ccc(Cl)cc3)[nH]c(=S)c2c1C |  | 0.0112 µM [rising, full curve]
14 | Cc1cc(C(=O)COc2ccc(Cl)cc2Br)c(C)n1C |  | 12.6 µM [rising, partial curve]
15 | O=C(CSCc1cnn(-c2ccccc2)c1-n1cccc1)NCc1ccc2c(c1)OCO2 |  | 35.5 µM [rising, single point]
16 | Cc1cccc(NS(=O)(=O)c2ccc3c(c2)OCCO3)c1 |  | 31.6 µM [rising, single point]
17 | Cc1cccc(C)c1NC(=O)C(c1ccccc1)N1CC(=O)Nc2ccccc21 (configuration not stated) |  | 2.24 µM [rising, single point]
18 | COc1cc(/C=N/NC(=O)c2cccnc2)ccc1OS(=O)(=O)c1cc(C)ccc1C | 11.2 µM [rising, single point] | 12.6 µM [rising, single point]

Reprinted at random: two compounds from above.
Row | Compound | AC50 [1] | AC50 [2]
3 | O=C(c1sc2cccc(F)c2c1Cl)N1CCN(c2ncccn2)CC1 |  | 0.398 µM [rising, partial curve, poor fit]
16 | Cc1cccc(NS(=O)(=O)c2ccc3c(c2)OCCO3)c1 |  | 31.6 µM [rising, single point]

Further structures follow.

Row | Compound | AC50 [1] | AC50 [2]
19 | O=C(CN1C(=O)C2C3C=CC(C3)C2C1=O)NCc1ccccc1 (configuration not stated) |  | 0.891 µM [falling, full curve, poor fit]
20 | c1ccc(CN2CCN(c3nc(-c4ccccc4)nc4ccccc34)CC2)cc1 |  | 31.6 µM [rising, single point]
21 | Cn1c(C(=O)NCC2CCCO2)cc2oc3ccccc3c21 (configuration not stated) | 35.5 µM [rising, single point] | 35.5 µM [rising, single point]
22 | CCN1C/C(=C/c2ccc(OC)c(O)c2)C(=O)/C(=C/c2ccc(OC)c(O)c2)C1 |  | 2.82 µM [falling, partial curve]
23 | CSc1ccc(C2c3[nH]c4ccccc4c3CCN2C(=O)c2cc(C)n(C)n2)cc1 (configuration not stated) | 35.5 µM [rising, single point] | 12.6 µM [rising, partial curve]
24 | O=C(/C=C/c1ccco1)N1CCN(c2ccccc2)CC1 | 3.16 µM [rising, partial curve, poor fit] | 
25 | O=c1c2c(nc3cc(-c4cccc(Cl)c4)[nH]n13)CCCC2 |  | 31.6 µM [rising, single point]
26 | CCOc1cc(/C=C/c2ccc3cccc([N+](=O)[O-])c3n2)ccc1O |  | 14.1 µM [rising, partial curve]
27 | CCCCN(CC)CCNC(=O)c1cc2c(C)nc3ccccc3c2o1 | 31.6 µM [rising, single point] | 31.6 µM [rising, single point]
28 | O=C(CSc1nccn1-c1ccccc1)Nc1ccc2c(c1)OCO2 | 10 µM [rising, partial curve] | 14.1 µM [rising, partial curve]
29 | COc1ccc(N2CCN(C(=O)CSc3nnc(-c4cc5ccccc5cc4O)n3C)CC2)cc1 | 1.78 µM [rising, full curve, poor fit] | 11.2 µM [rising, partial curve]
30 | O=C(Nc1ccccc1)c1cc2ccccc2c(=O)s1 |  | 11.2 µM [rising, partial curve]
31 | COc1ccc(/C=C/C(=O)N2CCCc3ccccc32)cc1 |  | 11.2 µM [rising, partial curve, poor fit]
32 | O=S(=O)(CCN1CCN(C(c2ccccc2)c2ccccc2)CC1)C(F)(F)F | 12.6 µM [falling, single point] | 
33 | CCC(=O)O[C@@H]1[C@H](C)O[C@H](O[C@H]2[C@@H](N(C)C)[C@H](O)[C@@H](O[C@@H]3[C@@H](CC=O)C[C@@H](C)[C@@H](O)/C=C\C=C/C[C@@H](C)OC(=O)C[C@@H](OC(=O)CC)[C@H]3OC)O[C@H]2C)C[C@]1(C)O | 0.224 µM [falling, full curve] | 
34 | Cc1cccc(N2CCN(c3ccc(N4C(=O)CCCC4=O)cc3[N+](=O)[O-])CC2C)c1 (configuration not stated) | 6.31 µM [rising, single point] | 35.5 µM [rising, single point]
35 | Cc1ccc2sc(N(CCCN(C)C)C(=O)c3ccc(S(=O)(=O)N(C)C)cc3)nc2c1C |  | 0.891 µM [rising, single point]
36 | Cc1ccc(CSC(Nc2ccc(F)cc2)=C(C#N)C#N)cc1 | 14.1 µM [rising, single point] | 15.8 µM [rising, partial curve]
